Measured values as given in paper doi:10.1101/2020.09.22.307595.
Results are given in words; binding and its absence hold for the method and conditions named. In cells and extracts the contact can be indirect. Some binding calls cover weakened binding; strength is not graded here.

Chains of the proteins cited; added tags and fusions are not shown.
UniProt Q9FFT4: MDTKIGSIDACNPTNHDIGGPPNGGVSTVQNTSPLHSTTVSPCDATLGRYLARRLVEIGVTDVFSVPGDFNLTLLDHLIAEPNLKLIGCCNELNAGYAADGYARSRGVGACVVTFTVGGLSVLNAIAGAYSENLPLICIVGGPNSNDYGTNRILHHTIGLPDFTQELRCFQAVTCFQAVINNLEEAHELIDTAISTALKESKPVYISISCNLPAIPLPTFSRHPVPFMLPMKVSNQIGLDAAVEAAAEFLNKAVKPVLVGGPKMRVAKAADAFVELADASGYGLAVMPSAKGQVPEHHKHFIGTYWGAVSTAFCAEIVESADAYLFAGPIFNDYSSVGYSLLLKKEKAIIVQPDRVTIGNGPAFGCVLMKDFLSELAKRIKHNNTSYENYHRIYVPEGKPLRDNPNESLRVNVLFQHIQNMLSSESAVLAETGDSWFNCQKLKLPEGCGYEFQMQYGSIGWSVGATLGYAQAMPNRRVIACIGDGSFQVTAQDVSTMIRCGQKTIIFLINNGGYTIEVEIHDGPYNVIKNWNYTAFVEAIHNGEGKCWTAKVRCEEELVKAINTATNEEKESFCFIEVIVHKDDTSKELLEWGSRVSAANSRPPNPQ

Target: cLUC-AtPDC2 (Arabidopsis thaliana) (UniProt Q9FFT4)
Assay: split reporter

“cLUC-AtPDC2 (from UniProt Q9FFT4 1-607) (enzyme)” was tested, and the binding was “binds”.
